Test results as given in paper PMC8018997.
Positions count from the first letter of the chain named. Results are given in words; binding and its absence hold for the method and conditions named. In cells and extracts the contact can be indirect. Some binding calls cover weakened binding; strength is not graded here. Where a sequence is shown, tags or fusion partners need not be part of it.

By UniProt entry, the sequences of proteins in these tests, tags left out.
UniProt O15379: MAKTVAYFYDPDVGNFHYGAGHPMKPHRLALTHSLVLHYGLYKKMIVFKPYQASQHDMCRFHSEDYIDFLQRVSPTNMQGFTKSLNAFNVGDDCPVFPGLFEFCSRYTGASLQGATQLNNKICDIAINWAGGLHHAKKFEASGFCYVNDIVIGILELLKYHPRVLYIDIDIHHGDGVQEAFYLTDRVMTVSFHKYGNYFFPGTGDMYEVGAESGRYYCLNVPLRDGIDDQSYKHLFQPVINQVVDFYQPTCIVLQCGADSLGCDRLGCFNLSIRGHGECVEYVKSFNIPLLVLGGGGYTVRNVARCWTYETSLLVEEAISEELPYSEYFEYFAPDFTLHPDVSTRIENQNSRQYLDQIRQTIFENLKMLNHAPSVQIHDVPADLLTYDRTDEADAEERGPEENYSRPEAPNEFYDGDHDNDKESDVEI
UniProt Q14653: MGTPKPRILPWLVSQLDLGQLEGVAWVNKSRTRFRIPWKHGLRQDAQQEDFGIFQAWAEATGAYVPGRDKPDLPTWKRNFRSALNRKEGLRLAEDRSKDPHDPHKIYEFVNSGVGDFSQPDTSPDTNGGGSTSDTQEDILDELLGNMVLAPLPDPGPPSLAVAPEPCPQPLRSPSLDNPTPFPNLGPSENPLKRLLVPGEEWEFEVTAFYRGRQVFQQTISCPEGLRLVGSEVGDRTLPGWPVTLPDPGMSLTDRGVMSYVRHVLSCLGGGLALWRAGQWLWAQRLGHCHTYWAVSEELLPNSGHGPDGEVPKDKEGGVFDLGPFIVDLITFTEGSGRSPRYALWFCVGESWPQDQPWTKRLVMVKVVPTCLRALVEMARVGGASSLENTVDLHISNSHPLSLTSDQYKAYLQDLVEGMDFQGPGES

Experiments:
Test in all cases: co-IP
Flag-tagged TBK1 K241Q = target: T1, Flag-tagged TBK1 K241Q (UniProt Q9UHD2)
T1 sequence: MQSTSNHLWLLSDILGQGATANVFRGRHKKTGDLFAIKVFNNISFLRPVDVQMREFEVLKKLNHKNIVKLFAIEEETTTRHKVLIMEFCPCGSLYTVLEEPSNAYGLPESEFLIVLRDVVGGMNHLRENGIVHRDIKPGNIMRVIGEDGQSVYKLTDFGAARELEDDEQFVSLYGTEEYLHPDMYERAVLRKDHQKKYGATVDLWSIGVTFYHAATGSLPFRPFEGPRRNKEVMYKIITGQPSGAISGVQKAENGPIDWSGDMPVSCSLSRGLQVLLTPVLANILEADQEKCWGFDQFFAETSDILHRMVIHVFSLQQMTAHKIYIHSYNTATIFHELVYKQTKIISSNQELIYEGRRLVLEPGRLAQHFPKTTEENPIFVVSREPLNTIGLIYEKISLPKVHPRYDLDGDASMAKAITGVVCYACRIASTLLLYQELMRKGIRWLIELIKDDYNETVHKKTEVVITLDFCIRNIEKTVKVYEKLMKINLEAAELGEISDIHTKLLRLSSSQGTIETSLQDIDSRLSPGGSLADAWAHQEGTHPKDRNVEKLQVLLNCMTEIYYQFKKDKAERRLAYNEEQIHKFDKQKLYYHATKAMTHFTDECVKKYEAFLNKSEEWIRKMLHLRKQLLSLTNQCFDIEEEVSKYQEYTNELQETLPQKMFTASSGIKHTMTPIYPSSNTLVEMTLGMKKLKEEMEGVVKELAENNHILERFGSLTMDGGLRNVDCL

Flag-tagged TBK1 K692Q = target: T2, Flag-tagged TBK1 K692Q (UniProt Q9UHD2)
T2 sequence: T1 sequence with Q241K, K692Q

Flag-tagged TBK1 K692R = target: T3, Flag-tagged TBK1 K692R (UniProt Q9UHD2)
T3 sequence: T1 sequence with Q241K, K692R

[1] = target: T4, Flag-tagged wild-type TBK1 (UniProt Q9UHD2)
T4 sequence: T1 sequence with Q241K

[2] = target: T5, EGFP-tagged wild-type TBK1 (UniProt Q9UHD2)
T5 sequence: T1 sequence with Q241K

| Substance | binding (Flag-tagged TBK1 K241Q) | binding (Flag-tagged TBK1 K692Q) | binding (Flag-tagged TBK1 K692R) | binding [1] | binding [2] |
| --- | --- | --- | --- | --- | --- |
| Myc-tagged HDAC3 (from UniProt O15379 1-428) (enzyme) | binds | binds |  |  |  |
| HA-tagged IRF3 (interferon regulatory factor 3) (from UniProt Q14653 1-427) | binds | binds | binds | binds |  |
| HA-tagged HDAC3 (from UniProt O15379 1-428) (enzyme) |  |  |  |  | binds |
